{"source": "patent US20130045483A1", "about": "“YEAST CELLS EXPRESSING AMYLOID BETA AND USES THEREFOR” (priority 2011, published 2013)", "system": "ssAβ screening strain (ssAβ1-42 p305)", "experiment": "Effect of estradiol alone on Aβ toxicity in ssAβ screening strain", "format": "cell-based", "conditions": "estradiol in the yeast media", "note": "At least one compound was matched to its structure with a doubt left.", "data": [{"smiles": "C[C@]12CC[C@@H]3c4ccc(O)cc4CC[C@H]3[C@@H]1CC[C@@H]2O", "note": "[estradiol]", "values": [{"measurement": "effect on Aβ toxicity on its own", "value": "Neither estradiol nor the Gal4-ER-VP16 plasmid had an effect on Aβ toxicity on their own"}]}]}
